Assay results taken from PMC11066007, “CORVET-specific subunit levels determine the balance between HOPS/CORVET endosomal tethering complexes” (Scientific Reports, 2024).
No constants are given. Whether binding was seen depends on the method and setting. In cells and extracts the contact can be indirect. Some entries that bind do so weakly or less than the wild type. Sequences can lack the tags named with a protein.

T1: VPS39-FLAG (human, UniProt Q96JC1 1-886)
T1 construct: VPS39, human, HOPS-specific subunit; DNA region encoding the full-length protein fused with a FLAG tag; also called HOPS-specific VPS39; not shown: FLAG, N-terminal, kept
T1 sequence (looked up): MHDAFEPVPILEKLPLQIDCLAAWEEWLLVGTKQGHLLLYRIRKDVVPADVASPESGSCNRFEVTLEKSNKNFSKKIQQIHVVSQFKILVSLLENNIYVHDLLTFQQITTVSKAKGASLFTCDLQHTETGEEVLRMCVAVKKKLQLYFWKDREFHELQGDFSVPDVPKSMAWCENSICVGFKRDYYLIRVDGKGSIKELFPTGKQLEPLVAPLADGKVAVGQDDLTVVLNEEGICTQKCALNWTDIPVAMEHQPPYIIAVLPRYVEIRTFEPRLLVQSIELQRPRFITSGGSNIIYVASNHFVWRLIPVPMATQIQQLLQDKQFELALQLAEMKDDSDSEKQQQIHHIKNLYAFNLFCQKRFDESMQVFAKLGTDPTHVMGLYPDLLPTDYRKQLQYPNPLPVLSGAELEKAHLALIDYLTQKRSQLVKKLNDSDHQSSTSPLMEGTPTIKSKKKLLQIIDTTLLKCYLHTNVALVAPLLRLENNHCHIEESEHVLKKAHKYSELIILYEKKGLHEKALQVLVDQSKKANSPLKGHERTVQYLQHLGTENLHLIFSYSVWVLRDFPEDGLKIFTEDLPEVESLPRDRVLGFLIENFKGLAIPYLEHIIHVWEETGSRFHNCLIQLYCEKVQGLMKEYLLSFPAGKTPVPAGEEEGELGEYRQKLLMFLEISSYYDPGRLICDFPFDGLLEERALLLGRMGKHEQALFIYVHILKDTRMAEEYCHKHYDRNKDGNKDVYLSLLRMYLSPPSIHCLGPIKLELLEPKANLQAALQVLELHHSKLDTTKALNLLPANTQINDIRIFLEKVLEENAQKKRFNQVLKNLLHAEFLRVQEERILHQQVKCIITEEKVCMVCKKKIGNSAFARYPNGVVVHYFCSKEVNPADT

T2: VPS8-FLAG (human, UniProt Q8N3P4 1-1428)
T2 construct: VPS8, human, CORVET-specific subunit; DNA region encoding the full-length protein fused with a FLAG tag; also called CORVET-specific VPS8; source: HEK293, stably transfected (pCMV3), in lysate; not shown: FLAG, C-terminal, kept
T2 sequence (looked up): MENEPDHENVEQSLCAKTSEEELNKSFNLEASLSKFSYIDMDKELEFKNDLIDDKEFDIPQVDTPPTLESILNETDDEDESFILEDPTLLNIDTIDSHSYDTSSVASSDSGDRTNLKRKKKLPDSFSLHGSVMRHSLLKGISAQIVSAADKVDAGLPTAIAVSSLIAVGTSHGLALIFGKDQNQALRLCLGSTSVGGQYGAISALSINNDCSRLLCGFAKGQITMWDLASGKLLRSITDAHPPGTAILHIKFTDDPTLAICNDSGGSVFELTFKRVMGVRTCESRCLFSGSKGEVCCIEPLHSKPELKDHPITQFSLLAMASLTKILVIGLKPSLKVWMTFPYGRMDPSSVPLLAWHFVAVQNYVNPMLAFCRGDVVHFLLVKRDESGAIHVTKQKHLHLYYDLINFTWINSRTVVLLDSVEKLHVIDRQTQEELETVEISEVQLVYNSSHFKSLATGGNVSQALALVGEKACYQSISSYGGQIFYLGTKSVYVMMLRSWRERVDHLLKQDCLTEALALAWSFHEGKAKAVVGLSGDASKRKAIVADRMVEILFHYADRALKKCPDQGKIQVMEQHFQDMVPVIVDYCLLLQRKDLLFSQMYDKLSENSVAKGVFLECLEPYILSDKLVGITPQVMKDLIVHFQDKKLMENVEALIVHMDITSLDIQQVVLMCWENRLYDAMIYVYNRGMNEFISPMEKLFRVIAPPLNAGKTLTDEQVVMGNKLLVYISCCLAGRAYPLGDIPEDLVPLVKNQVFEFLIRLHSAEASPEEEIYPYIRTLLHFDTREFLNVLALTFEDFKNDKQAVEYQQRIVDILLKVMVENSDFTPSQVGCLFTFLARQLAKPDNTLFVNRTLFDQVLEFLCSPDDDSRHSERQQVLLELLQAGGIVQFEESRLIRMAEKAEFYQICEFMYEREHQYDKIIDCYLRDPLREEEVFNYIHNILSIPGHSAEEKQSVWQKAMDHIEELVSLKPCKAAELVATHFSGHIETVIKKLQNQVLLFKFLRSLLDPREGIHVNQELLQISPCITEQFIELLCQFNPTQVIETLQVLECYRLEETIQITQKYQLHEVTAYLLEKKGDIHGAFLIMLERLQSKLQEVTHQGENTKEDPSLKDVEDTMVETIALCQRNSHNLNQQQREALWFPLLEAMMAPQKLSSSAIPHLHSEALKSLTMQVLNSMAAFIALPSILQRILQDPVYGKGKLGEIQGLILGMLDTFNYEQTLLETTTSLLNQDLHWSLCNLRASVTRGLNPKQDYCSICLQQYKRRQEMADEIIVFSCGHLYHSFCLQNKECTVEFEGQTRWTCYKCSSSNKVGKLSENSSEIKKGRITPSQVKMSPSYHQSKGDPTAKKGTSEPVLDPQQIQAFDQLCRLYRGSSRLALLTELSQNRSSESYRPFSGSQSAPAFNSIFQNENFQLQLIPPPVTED

B1: VPS11 (natural protein, human (endogenous in HEK293), UniProt Q9H270 1-941, looked up)
chain: MAAYLQWRRFVFFDKELVKEPLSNDGAAPGATPASGSAASKFLCLPPGITVCDSGRGSLVFGDMEGQIWFLPRSLQLTGFQAYKLRVTHLYQLKQHNILASVGEDEEGINPLVKIWNLEKRDGGNPLCTRIFPAIPGTEPTVVSCLTVHENLNFMAIGFTDGSVTLNKGDITRDRHSKTQILHKGNYPVTGLAFRQAGKTTHLFVVTTENVQSYIVSGKDYPRVELDTHGCGLRCSALSDPSQDLQFIVAGDECVYLYQPDERGPCFAFEGHKLIAHWFRGYLIIVSRDRKVSPKSEFTSRDSQSSDKQILNIYDLCNKFIAYSTVFEDVVDVLAEWGSLYVLTRDGRVHALQEKDTQTKLEMLFKKNLFEMAINLAKSQHLDSDGLAQIFMQYGDHLYSKGNHDGAVQQYIRTIGKLEPSYVIRKFLDAQRIHNLTAYLQTLHRQSLANADHTTLLLNCYTKLKDSSKLEEFIKKKSESEVHFDVETAIKVLRQAGYYSHALYLAENHAHHEWYLKIQLEDIKNYQEALRYIGKLPFEQAESNMKRYGKILMHHIPEQTTQLLKGLCTDYRPSLEGRSDREAPGCRANSEEFIPIFANNPRELKAFLEHMSEVQPDSPQGIYDTLLELRLQNWAHEKDPQVKEKLHAEAISLLKSGRFCDVFDKALVLCQMHDFQDGVLYLYEQGKLFQQIMHYHMQHEQYRQVISVCERHGEQDPSLWEQALSYFARKEEDCKEYVAAVLKHIENKNLMPPLLVVQTLAHNSTATLSVIRDYLVQKLQKQSQQIAQDELRVRRYREETTRIRQEIQELKASPKIFQKTKCSICNSALELPSVHFLCGHSFHQHCFESYSESDADCPTCLPENRKVMDMIRAQEQKRDLHDQFQHQLKCSNDSFSVIADYFGRGVFNKLTLLTDPPTARLTSSLEAGLQRDLLMHSRRGT
notes: VPS11, shared class C core subunit of HOPS and CORVET, detected by anti-VPS11 western blot in anti-FLAG precipitates; also called core subunit VPS11; source: endogenous, HEK293 lysate
B2: VPS18 (natural protein, human (endogenous in HEK293), UniProt Q9P253 1-973, looked up)
chain: MASILDEYENSLSRSAVLQPGCPSVGIPHSGYVNAQLEKEVPIFTKQRIDFTPSERITSLVVSSNQLCMSLGKDTLLRIDLGKANEPNHVELGRKDDAKVHKMFLDHTGSHLLIALSSTEVLYVNRNGQKVRPLARWKGQLVESVGWNKALGTESSTGPILVGTAQGHIFEAELSASEGGLFGPAPDLYFRPLYVLNEEGGPAPVCSLEAERGPDGRSFVIATTRQRLFQFIGRAAEGAEAQGFSGLFAAYTDHPPPFREFPSNLGYSELAFYTPKLRSAPRAFAWMMGDGVLYGALDCGRPDSLLSEERVWEYPEGVGPGASPPLAIVLTQFHFLLLLADRVEAVCTLTGQVVLRDHFLEKFGPLKHMVKDSSTGQLWAYTERAVFRYHVQREARDVWRTYLDMNRFDLAKEYCRERPDCLDTVLAREADFCFRQRRYLESARCYALTQSYFEEIALKFLEARQEEALAEFLQRKLASLKPAERTQATLLTTWLTELYLSRLGALQGDPEALTLYRETKECFRTFLSSPRHKEWLFASRASIHELLASHGDTEHMVYFAVIMQDYERVVAYHCQHEAYEEALAVLARHRDPQLFYKFSPILIRHIPRQLVDAWIEMGSRLDARQLIPALVNYSQGGEVQQVSQAIRYMEFCVNVLGETEQAIHNYLLSLYARGRPDSLLAYLEQAGASPHRVHYDLKYALRLCAEHGHHRACVHVYKVLELYEEAVDLALQVDVDLAKQCADLPEEDEELRKKLWLKIARHVVQEEEDVQTAMACLASCPLLKIEDVLPFFPDFVTIDHFKEAICSSLKAYNHHIQELQREMEEATASAQRIRRDLQELRGRYGTVEPQDKCATCDFPLLNRPFYLFLCGHMFHADCLLQAVRPGLPAYKQARLEELQRKLGAAPPPAKGSARAKEAEGGAATAGPSREQLKADLDELVAAECVYCGELMIRSIDRPFIDPQRYEEEQLSWL
notes: VPS18, shared class C core subunit of HOPS and CORVET, detected by anti-VPS18 western blot in anti-FLAG precipitates; also called core subunit VPS18; source: endogenous, HEK293 lysate

What was measured:
VPS39-FLAG = target: T1, VPS39-FLAG; experiment: co-IP; anti-FLAG beads on total lysates of HEK293 cells stably transfected with a FLAG-tagged specific subunit, with or without transient overexpression of the counterpart subunit (control: pCMV); endogenous VPS11 and VPS18 detected by western blot, densitometry with ImageJ; lysis buffer 50 mM TRIS-HCl pH 7.5, 150 mM NaCl, 1% Triton X-100, 5 mM EDTA; 1.5 h at 4 °C
VPS8-FLAG = target: T2, VPS8-FLAG; experiment: as above

| Binder | binding (VPS39-FLAG) | binding (VPS8-FLAG) |
| --- | --- | --- |
| B1 | binds | binds |
| B2 | binds | binds |
